Data as given in PubChem BioAssay AID1259272 (Sanger Institute, 2017).

- Purpose: 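Kinase knock-downs lethal to colorectal cancer cells, with or without anchor drugs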 (primary screen)
- Cells: SW1116 human colorectal cancer cells
- Reagents: siRNA pool against human genes
- Challenge: anchor drugs BYL719 (1 µM), cetuximab (5 µg/ml) or trametinib (10 nM), or DMSO vehicle; exposure length not given
- Measurement: 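Cell survival as a fraction of wells given a non-targeting pool, averaged over replicates; robust z-score without drug; synergy score for each of BYL719, cetuximab and trametinib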
- Direction: viability z-score, no drug: higher = more cells remaining; strongly negative means essential gene
- Hit rule: 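Called essential if the drug-free knock-down gives a robust viability z-score below -3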
- Calls: active = essential (knock-down alone); inactive = no change
In all, the deposit lists 794 reagents; this is an unselected part. Of all reagents, 7 (0.88%) are marked active. 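Essential calls reflect knock-down without drug only, not synergy with drugs; drug exposure length not given.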 Further read-outs or replicates are left out here. No sequences are given here. The record does not give: the amount of reagent, the time to read-out.

The opening 6 entries, to show the layout:
| gene | viability z-score, no drug | call |
| --- | --- | --- |
| TNK1 | -0.929 | inactive |
| BLK | 0.842 | inactive |
| CAMK2G | 0.173 | inactive |
| LMTK1 | -0.532 | inactive |
| PRKAG1 | -0.886 | inactive |
| PIM3 | 0.842 | inactive |

The list itself, repeating the preview:
| gene | viability z-score, no drug | call |
| --- | --- | --- |
| TNK1 | -0.929 | inactive |
| BLK | 0.842 | inactive |
| CAMK2G | 0.173 | inactive |
| LMTK1 | -0.532 | inactive |
| PRKAG1 | -0.886 | inactive |
| PIM3 | 0.842 | inactive |
| TP53BP1 | 0.842 | inactive |
| CNOT1 | -2.73 | inactive |
| GRK3 | 0.842 | inactive |
| CRIM1 | 0.842 | inactive |
| DBF4 | 0.0933 | inactive |
| CHUK | 0.842 | inactive |
| CAMK2N1 | -1.57 | inactive |
| LMBR1 | -1.9 | inactive |
| AKAP9 | -0.625 | inactive |
| MYH10 | 0.33 | inactive |
| PTEN | 0.842 | inactive |
| CDK16 | 0.842 | inactive |
| DGKD | 0.842 | inactive |
| ACVR2A | 0.12 | inactive |
| CDKN1A | 0.487 | inactive |
| HIPK3 | 0.801 | inactive |
| TNK2 | 0.00218 | inactive |
| DMPK | 0.842 | inactive |
| TJP2 | 0.842 | inactive |
| CKS1B | 0.519 | inactive |
| CDKN2C | 0.842 | inactive |
| GALK2 | -0.531 | inactive |
| POMK | 0.303 | inactive |
| PRPS1L1 | 0.107 | inactive |
| MET | 0.73 | inactive |
| MAPK14 | 0.842 | inactive |
| ROR1 | 0.698 | inactive |
| CHKA | -1.59 | inactive |
| PI4KA | 0.842 | inactive |
| HIPK4 | 0.842 | inactive |
| MAP3K13 | 0.842 | inactive |
| PHKG2 | -0.0167 | inactive |
| DGKI | 0.842 | inactive |
| ADGRL2 | -0.502 | inactive |
| RIOK2 | -0.609 | inactive |
| CDK6 | -0.376 | inactive |
| PIP5K1A | 0.778 | inactive |
| LIMK1 | 0.365 | inactive |
| FN1 | 0.314 | inactive |
| GK | 0.842 | inactive |
| NEK7 | 0.842 | inactive |
| BRD4 | 0.38 | inactive |
| JAK2 | -3.05 | active |
| NME6 | 0.842 | inactive |
